No constants are given. Whether binding was seen depends on the method and setting. In cells and extracts the contact can be indirect. Some binding calls cover weakened binding; strength is not graded here. Tags and fused reporters may be left off the sequences shown.
Molecular target: T1, Flag-IKK2 (IκB kinase 2), O14920
T1 chain: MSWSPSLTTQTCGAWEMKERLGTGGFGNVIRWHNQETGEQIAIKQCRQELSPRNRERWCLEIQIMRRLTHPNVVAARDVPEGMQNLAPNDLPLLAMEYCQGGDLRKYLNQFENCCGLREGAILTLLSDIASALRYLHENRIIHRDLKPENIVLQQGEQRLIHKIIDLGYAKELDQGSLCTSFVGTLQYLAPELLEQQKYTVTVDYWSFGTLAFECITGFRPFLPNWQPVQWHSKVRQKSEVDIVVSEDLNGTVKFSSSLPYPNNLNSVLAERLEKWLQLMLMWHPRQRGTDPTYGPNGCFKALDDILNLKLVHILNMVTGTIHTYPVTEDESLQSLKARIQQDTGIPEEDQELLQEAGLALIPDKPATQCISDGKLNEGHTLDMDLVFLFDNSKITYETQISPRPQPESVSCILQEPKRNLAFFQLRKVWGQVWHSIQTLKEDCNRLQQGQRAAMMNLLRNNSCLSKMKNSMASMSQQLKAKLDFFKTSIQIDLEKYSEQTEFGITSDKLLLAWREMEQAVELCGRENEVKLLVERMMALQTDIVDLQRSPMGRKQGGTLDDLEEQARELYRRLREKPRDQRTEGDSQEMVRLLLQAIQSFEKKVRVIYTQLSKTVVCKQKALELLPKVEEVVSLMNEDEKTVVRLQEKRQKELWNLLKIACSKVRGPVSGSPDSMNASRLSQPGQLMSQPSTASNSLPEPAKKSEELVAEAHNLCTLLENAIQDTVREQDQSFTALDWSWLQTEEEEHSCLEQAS
Assay: co-IP; LMP1-induced interaction of TAK1 with IKK2, with or without NEMO, Supplementary Fig. 2b; legend not shown, method taken from the paper's general co-immunoprecipitation procedure
Details: remark: other sources report otherwise

B1: TGFβ-activated kinase 1 (TAK1), O43318 1-606 (enzyme)
chain: MSTASAASSSSSSSAGEMIEAPSQVLNFEEIDYKEIEVEEVVGRGAFGVVCKAKWRAKDVAIKQIESESERKAFIVELRQLSRVNHPNIVKLYGACLNPVCLVMEYAEGGSLYNVLHGAEPLPYYTAAHAMSWCLQCSQGVAYLHSMQPKALIHRDLKPPNLLLVAGGTVLKICDFGTACDIQTHMTNNKGSAAWMAPEVFEGSNYSEKCDVFSWGIILWEVITRRKPFDEIGGPAFRIMWAVHNGTRPPLIKNLPKPIESLMTRCWSKDPSQRPSMEEIVKIMTHLMRYFPGADEPLQYPCQYSDEGQSNSATSTGSFMDIASTNTSNKSDTNMEQVPATNDTIKRLESKLLKNQAKQQSESGRLSLGASRGSSVESLPPTSEGKRMSADMSEIEARIAATTAYSKPKRGHRKTASFGNILDVPEIVISGNGQPRRRSIQDLTVTGTEPGQVSSRSSSPSVRMITTSGPTSEKPTRSHPWTPDDSTDTNGSDNSIPMAYLTLDHQLQPLAPCPNSKESMAVFEQHCKMAQEYMKVQTEIALLLQRKQELVAELDQDEKDQQNTSRLVQEHKKLLDENKSLSTYYQQCKKQLEVIRSQQQKRQGTS
binding: binds

Source: paper PMC7000802
